The source of these data is paper PMC9346270.

Amino acid sequences for entries named in this document (tags omitted). A change or cut given only in a name is not applied to a line headed by its entry. Chains listed by the source or under a name are the forms on record and can include a tag or linker.
UniProt P12982: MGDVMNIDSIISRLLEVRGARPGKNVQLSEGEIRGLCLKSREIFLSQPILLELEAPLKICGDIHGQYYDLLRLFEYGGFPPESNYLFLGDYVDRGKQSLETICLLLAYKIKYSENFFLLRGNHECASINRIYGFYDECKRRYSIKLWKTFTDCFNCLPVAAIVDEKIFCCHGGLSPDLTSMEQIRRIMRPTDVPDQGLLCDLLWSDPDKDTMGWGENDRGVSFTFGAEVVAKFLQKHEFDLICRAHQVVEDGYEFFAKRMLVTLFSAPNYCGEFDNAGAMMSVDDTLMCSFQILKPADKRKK
Scrib, overexpressed in S2 cells (Q7KRY7-2, form named): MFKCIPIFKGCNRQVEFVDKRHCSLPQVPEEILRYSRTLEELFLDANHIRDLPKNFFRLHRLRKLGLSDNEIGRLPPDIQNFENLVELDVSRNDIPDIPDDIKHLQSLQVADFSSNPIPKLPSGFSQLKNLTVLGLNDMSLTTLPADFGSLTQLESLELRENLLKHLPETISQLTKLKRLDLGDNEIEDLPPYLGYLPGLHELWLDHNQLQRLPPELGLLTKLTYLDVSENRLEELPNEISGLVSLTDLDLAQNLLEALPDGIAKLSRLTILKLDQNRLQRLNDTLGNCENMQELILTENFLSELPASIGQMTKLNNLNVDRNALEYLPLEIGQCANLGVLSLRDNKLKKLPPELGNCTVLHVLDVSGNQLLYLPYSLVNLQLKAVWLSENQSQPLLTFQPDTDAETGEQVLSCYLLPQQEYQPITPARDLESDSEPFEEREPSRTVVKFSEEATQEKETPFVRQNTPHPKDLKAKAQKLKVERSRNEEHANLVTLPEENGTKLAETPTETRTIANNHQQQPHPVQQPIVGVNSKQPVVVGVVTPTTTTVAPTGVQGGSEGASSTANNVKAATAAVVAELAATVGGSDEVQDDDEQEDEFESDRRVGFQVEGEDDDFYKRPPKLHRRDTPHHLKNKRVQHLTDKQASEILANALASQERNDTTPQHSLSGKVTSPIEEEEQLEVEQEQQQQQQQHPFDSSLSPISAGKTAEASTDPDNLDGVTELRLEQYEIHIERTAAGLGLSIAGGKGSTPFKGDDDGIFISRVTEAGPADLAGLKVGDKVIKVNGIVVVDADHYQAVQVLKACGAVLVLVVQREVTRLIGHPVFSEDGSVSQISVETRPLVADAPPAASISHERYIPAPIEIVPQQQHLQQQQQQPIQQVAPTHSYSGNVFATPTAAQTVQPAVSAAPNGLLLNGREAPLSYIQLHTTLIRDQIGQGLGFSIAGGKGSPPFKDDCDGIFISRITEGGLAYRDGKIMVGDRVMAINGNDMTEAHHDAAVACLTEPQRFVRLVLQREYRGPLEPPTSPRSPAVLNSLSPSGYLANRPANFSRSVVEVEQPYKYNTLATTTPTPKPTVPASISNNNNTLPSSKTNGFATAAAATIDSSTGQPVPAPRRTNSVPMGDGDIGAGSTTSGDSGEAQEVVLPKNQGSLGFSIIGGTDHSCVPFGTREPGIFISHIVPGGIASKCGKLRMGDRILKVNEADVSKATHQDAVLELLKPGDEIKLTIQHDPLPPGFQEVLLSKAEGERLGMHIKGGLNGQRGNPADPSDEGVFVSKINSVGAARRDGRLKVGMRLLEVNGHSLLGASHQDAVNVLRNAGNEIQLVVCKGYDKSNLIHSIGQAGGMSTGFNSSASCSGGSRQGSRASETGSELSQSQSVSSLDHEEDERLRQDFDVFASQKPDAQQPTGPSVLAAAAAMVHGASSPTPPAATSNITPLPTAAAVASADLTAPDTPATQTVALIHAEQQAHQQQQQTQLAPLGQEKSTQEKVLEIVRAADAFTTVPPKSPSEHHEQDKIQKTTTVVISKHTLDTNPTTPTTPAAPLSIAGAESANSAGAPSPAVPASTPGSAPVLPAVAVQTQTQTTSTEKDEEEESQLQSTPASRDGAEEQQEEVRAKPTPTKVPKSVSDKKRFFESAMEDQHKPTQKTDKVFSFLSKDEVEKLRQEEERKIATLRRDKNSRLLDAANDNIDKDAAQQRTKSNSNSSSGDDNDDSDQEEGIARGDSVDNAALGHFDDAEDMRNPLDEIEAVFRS

The target of experiment [1] is T1, Discs-large (Dlg), transgenic, overexpressed in follicle cells (Drosophila melanogaster) (UniProt P31007).
T1 sequence: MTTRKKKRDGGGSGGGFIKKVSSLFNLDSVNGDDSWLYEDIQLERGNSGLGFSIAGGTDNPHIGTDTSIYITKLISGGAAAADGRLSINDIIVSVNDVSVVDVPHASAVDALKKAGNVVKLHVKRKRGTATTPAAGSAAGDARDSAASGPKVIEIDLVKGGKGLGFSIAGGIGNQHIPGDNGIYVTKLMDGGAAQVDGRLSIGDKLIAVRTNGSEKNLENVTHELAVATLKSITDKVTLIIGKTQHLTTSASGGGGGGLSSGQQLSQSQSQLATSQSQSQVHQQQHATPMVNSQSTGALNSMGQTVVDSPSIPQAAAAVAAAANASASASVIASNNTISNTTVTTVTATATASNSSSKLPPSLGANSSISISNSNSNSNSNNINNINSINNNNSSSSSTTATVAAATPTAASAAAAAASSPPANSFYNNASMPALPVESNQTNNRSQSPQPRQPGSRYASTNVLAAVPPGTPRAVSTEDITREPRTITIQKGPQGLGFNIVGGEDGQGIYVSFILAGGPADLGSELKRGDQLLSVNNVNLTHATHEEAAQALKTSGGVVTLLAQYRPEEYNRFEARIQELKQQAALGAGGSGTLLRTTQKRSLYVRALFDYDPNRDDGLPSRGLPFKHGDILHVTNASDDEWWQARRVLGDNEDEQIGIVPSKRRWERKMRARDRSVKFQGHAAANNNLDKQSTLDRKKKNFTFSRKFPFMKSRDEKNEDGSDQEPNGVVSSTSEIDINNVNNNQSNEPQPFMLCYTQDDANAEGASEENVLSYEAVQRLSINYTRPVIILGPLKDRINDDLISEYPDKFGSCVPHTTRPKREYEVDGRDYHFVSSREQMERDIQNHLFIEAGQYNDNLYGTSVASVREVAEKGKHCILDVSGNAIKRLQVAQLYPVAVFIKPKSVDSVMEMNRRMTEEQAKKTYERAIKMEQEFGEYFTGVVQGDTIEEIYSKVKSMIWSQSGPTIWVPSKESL
In words: co-IP; extracts from follicles; told only in the discussion as 'biochemically detect'; no figure named.

The target of experiment [2] is Protein Phosphatase 1α (PP1α) homolog Pp1-87B, transgenic, overexpressed in follicle cells (Drosophila) (UniProt P12982). In words: co-IP; transgenic proteins overexpressed in follicle cells; ovary tissue lysed in IP buffer (10 mM Tris, 150 mM NaCl, 0.5 mM EDTA, 0.5% NP-40); 200 µg protein on antibody-conjugated Protein G Dynabeads overnight at 4°C; western blot. In general terms: Immunoblotting shows a protein as a band on a membrane.

For experiment [3], the target named is PP1 (Pp1-87B), overexpressed in S2 cells (Drosophila) (UniProt P12982). In words: co-IP; proteins overexpressed in S2 cells; lysed in IP buffer (10 mM Tris, 150 mM NaCl, 0.5 mM EDTA, 0.5% NP-40); antibody-conjugated Protein G Dynabeads overnight at 4°C; also after in situ crosslinking with 2 mM DSS before lysis; for Fig. S5D also with severalfold more starting material.

Results are given in words; binding and its absence hold for the method and conditions named. Binding seen in cells or lysates may run through a third protein.

Take “Scribble (Scrib), transgenic, overexpressed in follicle cells (from UniProt Q7KRY7-2 1-1756)”: the binding result in experiment [1] and in experiment [2] was “no binding” each time.
With “Scrib, overexpressed in S2 cells (from UniProt Q7KRY7-2 1-1756)”, in experiment [3], the binding entry was “no binding”.

B1: Discs-large (Dlg), transgenic, overexpressed in follicle cells (protein, UniProt P31007-5 1-975)
chain: MTTRKKKRDGGGSGGGFIKKVSSLFNLDSVNGDDSWLYEDIQLERGNSGLGFSIAGGTDNPHIGTDTSIYITKLISGGAAAADGRLSINDIIVSVNDVSVVDVPHASAVDALKKAGNVVKLHVKRKRGTATTPAAGSAAGDARDSAASGPKVIEIDLVKGGKGLGFSIAGGIGNQHIPGDNGIYVTKLMDGGAAQVDGRLSIGDKLIAVRTNGSEKNLENVTHELAVATLKSITDKVTLIIGKTQHLTTSASGGGGGGLSSGQQLSQSQSQLATSQSQSQVHQQQHATPMVNSQSTGALNSMGQTVVDSPSIPQAAAAVAAAANASASASVIASNNTISNTTVTTVTATATASNSSSKLPPSLGANSSISISNSNSNSNSNNINNINSINNNNSSSSSTTATVAAATPTAASAAAAAASSPPANSFYNNASMPALPVESNQTNNRSQSPQPRQPGSRYASTNVLAAVPPGTPRAVSTEDITREPRTITIQKGPQGLGFNIVGGEDGQGIYVSFILAGGPADLGSELKRGDQLLSVNNVNLTHATHEEAAQALKTSGGVVTLLAQYRPEEYNRFEARIQELKQQAALGAGGSGTLLRTTQKRSLYVRALFDYDPNRDDGLPSRGLPFKHGDILHVTNASDDEWWQARRVLGDNEDEQIGIVPSKRRWERKMRARDRSVKFQGHAAANNNLDKQSTLDRKKKNFTFSRKFPFMKSRDEKNEDGSDQEPNGVVSSTSEIDINNVNNNQSNEPQPFMLCYTQDDANAEGASEENVLSYEAVQRLSINYTRPVIILGPLKDRINDDLISEYPDKFGSCVPHTTRPKREYEVDGRDYHFVSSREQMERDIQNHLFIEAGQYNDNLYGTSVASVREVAEKGKHCILDVSGNAIKRLQVAQLYPVAVFIKPKSVDSVMEMNRRMTEEQAKKTYERAIKMEQEFGEYFTGVVQGDTIEEIYSKVKSMIWSQSGPTIWVPSKESL
For B1, in experiment [2], the binding result was “no binding”.

B2: Dlg, overexpressed in S2 cells (protein, UniProt P31007-5 1-975)
chain: MTTRKKKRDGGGSGGGFIKKVSSLFNLDSVNGDDSWLYEDIQLERGNSGLGFSIAGGTDNPHIGTDTSIYITKLISGGAAAADGRLSINDIIVSVNDVSVVDVPHASAVDALKKAGNVVKLHVKRKRGTATTPAAGSAAGDARDSAASGPKVIEIDLVKGGKGLGFSIAGGIGNQHIPGDNGIYVTKLMDGGAAQVDGRLSIGDKLIAVRTNGSEKNLENVTHELAVATLKSITDKVTLIIGKTQHLTTSASGGGGGGLSSGQQLSQSQSQLATSQSQSQVHQQQHATPMVNSQSTGALNSMGQTVVDSPSIPQAAAAVAAAANASASASVIASNNTISNTTVTTVTATATASNSSSKLPPSLGANSSISISNSNSNSNSNNINNINSINNNNSSSSSTTATVAAATPTAASAAAAAASSPPANSFYNNASMPALPVESNQTNNRSQSPQPRQPGSRYASTNVLAAVPPGTPRAVSTEDITREPRTITIQKGPQGLGFNIVGGEDGQGIYVSFILAGGPADLGSELKRGDQLLSVNNVNLTHATHEEAAQALKTSGGVVTLLAQYRPEEYNRFEARIQELKQQAALGAGGSGTLLRTTQKRSLYVRALFDYDPNRDDGLPSRGLPFKHGDILHVTNASDDEWWQARRVLGDNEDEQIGIVPSKRRWERKMRARDRSVKFQGHAAANNNLDKQSTLDRKKKNFTFSRKFPFMKSRDEKNEDGSDQEPNGVVSSTSEIDINNVNNNQSNEPQPFMLCYTQDDANAEGASEENVLSYEAVQRLSINYTRPVIILGPLKDRINDDLISEYPDKFGSCVPHTTRPKREYEVDGRDYHFVSSREQMERDIQNHLFIEAGQYNDNLYGTSVASVREVAEKGKHCILDVSGNAIKRLQVAQLYPVAVFIKPKSVDSVMEMNRRMTEEQAKKTYERAIKMEQEFGEYFTGVVQGDTIEEIYSKVKSMIWSQSGPTIWVPSKESL
In the case of B2, in experiment [3], the binding entry is given as “no binding”.
